No constants are given. Whether binding was seen depends on the method and setting. Binding seen in cells or lysates may run through a third protein. Some binding calls cover weakened binding; strength is not graded here. Tags and fused reporters may be left off the sequences shown.
Target: GST-cIAP1 (human) (UniProt Q13490)
Test: pull-down; GST pull-down from lysate of HEK293T cells co-expressing a GST-tagged and a Venus-Flag-tagged protein; 1% NP-40 lysis buffer (20 mM Tris-HCl, 150 mM NaCl, 5% glycerol, 2 mM EDTA), glutathione sepharose beads, 4 C for 2 h, immunoblot; cells serum-starved overnight for Fig. 1H

Sequences of proteins named here, by UniProt entry; tags and fusion partners are left off.
UniProt Q13490: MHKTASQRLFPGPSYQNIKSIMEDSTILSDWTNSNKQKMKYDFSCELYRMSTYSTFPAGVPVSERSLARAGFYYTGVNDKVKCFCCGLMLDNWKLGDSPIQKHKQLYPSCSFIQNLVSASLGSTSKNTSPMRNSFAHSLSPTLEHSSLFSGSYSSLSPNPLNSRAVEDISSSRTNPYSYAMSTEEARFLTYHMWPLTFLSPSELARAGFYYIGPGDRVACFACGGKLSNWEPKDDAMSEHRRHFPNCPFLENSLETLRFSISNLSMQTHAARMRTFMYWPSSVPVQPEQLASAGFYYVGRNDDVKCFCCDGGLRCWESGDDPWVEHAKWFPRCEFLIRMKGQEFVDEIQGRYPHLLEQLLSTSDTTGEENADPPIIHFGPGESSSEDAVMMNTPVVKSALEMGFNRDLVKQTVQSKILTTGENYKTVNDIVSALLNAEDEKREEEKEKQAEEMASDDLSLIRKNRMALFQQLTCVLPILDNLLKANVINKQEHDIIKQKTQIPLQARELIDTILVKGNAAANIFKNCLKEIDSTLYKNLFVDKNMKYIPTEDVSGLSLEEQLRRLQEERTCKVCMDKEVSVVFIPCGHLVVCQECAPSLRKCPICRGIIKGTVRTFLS

B1: Venus-Flag-tagged LKB1 kinase domain C-lobe truncation (CL) (domain or fragment, UniProt Q15831 132-347)
chain: CVCGMQEMLDSVPEKRFPVCQAHGYFCQLIDGLEYLHSQGIVHKDIKPGNLLLTTGGTLKISDLGVAEALHPFAADDTCRTSQGSPAFQPPEIANGLDTFSGFKVDIWSAGVTLYNITTGLYPFEGDNIYKLFENIGKGSYAIPGDCGPPLSDLLKGMLEYEPAKRFSIRQIRQHSWFRKKHPPAEAPVPIPPSPDTKDRWRSMTVVPYLEDLHGA
binding: binds
